Measurements as given in PubChem BioAssay (EPA / NIEHS).
This list was built around the results that the source calls inconclusive (neither active nor inactive); the mix of calls is not that of the screen. Potencies beside an inconclusive call are fits to weak or partial responses and may not hold up. Active and inactive are the calls of the source. The calls were made as follows: active = hit-call score of the fitted dose curve at least 0.9, where 1 is the maximum; inconclusive = response in the unintended direction; inactive = score below 0.9.

Sequences of proteins named here, by UniProt entry; tags and fusion partners are left off. A change or cut given only in a name is not applied to a line headed by its entry.
UniProt P37231: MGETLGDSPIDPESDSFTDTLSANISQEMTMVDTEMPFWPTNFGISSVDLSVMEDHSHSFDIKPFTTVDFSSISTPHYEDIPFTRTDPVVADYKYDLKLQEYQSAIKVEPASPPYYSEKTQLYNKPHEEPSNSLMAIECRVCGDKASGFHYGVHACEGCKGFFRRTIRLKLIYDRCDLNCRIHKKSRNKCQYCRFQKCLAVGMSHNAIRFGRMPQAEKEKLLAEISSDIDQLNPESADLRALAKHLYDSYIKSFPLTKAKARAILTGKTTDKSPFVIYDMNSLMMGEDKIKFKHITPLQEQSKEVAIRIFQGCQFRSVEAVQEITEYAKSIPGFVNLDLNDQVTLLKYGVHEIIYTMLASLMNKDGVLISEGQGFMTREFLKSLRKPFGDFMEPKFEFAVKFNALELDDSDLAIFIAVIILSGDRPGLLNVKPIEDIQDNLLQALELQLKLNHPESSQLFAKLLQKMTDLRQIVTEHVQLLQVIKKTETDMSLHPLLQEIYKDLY
UniProt P13631, whole entry, looked up: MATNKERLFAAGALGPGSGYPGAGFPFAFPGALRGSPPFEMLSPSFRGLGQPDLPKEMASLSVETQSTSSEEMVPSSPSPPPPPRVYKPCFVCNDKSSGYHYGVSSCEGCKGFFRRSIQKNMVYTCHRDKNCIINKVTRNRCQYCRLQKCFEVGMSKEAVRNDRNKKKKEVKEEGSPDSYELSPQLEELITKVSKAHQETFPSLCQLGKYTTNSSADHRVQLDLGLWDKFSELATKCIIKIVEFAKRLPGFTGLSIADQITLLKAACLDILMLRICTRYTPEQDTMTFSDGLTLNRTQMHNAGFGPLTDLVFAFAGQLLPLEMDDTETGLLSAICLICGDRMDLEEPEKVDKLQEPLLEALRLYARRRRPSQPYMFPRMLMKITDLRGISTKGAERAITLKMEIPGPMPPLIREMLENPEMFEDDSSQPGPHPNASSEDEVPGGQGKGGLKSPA
UniProt Q92753: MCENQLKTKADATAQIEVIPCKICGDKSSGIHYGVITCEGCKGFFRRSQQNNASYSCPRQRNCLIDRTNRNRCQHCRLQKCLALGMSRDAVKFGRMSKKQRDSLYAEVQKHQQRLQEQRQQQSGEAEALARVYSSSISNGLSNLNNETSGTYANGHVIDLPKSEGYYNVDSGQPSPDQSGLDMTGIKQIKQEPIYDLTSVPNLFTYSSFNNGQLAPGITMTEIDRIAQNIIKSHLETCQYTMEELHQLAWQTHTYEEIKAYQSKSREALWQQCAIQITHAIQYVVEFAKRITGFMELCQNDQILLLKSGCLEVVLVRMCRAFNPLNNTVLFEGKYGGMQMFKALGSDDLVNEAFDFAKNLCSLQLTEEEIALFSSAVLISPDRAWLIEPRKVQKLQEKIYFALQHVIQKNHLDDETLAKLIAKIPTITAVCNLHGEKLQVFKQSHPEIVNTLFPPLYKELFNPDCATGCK
UniProt P51449: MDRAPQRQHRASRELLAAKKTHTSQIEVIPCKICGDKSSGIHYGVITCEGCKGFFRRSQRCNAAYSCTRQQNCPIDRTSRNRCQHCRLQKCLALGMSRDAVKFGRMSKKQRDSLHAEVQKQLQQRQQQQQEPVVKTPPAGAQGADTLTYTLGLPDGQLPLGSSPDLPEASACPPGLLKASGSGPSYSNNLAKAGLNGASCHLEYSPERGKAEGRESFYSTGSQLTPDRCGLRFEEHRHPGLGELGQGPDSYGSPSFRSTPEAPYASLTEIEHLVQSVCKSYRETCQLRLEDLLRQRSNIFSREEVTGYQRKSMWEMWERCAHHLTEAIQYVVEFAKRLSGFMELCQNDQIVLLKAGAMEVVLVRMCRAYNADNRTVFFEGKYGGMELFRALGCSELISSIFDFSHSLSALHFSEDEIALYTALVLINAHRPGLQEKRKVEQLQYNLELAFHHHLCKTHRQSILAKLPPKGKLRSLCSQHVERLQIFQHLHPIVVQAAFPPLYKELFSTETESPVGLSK
UniProt P19793: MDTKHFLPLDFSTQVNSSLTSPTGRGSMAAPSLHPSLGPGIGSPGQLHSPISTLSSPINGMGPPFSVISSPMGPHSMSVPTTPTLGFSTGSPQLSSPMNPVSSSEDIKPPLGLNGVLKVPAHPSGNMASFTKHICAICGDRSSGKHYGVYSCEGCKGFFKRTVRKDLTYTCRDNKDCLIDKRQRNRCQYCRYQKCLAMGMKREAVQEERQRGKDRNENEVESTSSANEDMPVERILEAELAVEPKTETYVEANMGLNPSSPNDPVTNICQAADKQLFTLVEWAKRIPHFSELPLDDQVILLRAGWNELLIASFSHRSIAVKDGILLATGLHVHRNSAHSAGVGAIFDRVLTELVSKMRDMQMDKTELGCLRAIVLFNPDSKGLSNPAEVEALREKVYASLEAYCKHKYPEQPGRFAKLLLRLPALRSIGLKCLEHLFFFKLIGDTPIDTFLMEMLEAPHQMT
UniProt P28702: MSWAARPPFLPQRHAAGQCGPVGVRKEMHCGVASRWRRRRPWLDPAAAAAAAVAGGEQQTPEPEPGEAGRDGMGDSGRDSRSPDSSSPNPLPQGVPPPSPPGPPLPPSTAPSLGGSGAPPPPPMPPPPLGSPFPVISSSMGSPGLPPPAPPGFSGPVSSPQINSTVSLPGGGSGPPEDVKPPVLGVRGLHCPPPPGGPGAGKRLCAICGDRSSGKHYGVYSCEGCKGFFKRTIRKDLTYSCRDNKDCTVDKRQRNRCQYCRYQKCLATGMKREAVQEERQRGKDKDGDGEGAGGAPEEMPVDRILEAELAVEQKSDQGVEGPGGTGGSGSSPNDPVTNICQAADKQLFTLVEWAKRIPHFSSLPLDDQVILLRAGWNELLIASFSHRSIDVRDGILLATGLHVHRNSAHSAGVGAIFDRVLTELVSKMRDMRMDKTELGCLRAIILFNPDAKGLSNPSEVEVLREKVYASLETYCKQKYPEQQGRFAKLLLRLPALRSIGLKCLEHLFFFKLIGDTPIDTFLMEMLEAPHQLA
UniProt P10827: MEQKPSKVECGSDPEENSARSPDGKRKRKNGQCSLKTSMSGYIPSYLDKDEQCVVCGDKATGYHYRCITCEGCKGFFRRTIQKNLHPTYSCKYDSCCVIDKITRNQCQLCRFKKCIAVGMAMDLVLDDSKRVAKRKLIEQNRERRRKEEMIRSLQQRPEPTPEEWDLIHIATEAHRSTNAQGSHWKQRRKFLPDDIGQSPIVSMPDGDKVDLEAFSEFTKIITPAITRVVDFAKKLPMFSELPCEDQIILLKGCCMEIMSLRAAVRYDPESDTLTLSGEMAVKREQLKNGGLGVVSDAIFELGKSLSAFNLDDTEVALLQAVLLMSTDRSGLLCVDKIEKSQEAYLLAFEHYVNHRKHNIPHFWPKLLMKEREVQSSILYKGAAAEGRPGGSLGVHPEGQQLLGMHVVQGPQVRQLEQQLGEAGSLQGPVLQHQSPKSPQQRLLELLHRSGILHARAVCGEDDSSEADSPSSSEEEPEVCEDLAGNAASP
UniProt P11473: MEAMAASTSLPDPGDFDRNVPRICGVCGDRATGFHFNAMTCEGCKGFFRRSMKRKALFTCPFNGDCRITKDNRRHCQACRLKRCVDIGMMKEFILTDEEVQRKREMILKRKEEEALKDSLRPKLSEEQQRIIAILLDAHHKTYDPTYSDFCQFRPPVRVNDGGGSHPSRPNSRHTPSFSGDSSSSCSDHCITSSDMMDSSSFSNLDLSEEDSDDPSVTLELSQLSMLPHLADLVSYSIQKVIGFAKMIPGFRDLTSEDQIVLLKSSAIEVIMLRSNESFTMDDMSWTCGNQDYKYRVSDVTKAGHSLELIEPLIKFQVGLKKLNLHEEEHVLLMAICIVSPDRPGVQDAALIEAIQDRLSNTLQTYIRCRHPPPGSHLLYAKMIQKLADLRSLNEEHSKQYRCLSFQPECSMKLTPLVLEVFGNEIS

Legend:
[1] = target: Peroxisome proliferator-activated receptor gamma (Homo sapiens) (UniProt P37231); assay: ATG_PPARg_TRANS: Attagene TRANS-FACTORIAL HepG2 Assay for human Peroxisome Proliferator-activated Receptor-gamma (PPARg) (AID 2283007)
Procedure, shortened: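 Gain-of-signal endpoint relative to DMSO, derived from reporter mRNA levels quantified by RT-PCR and capillary electrophoresis. Cells were HepG2 transiently expressing a chimeric NR-Gal4 construct with GAL4-UAS reporters, exposed to chemicals for 24 h.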

[2] = target: human Retinoic Acid Receptor gamma (RARg), RARG (gene 5916) (UniProt P13631); assay: ATG_RARg_TRANS: Attagene TRANS-FACTORIAL HepG2 Assay for human Retinoic Acid Receptor gamma (RARg) (AID 2283009);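 also: AC50 is for reporter induction above DMSO meaning RARg activation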
Procedure, shortened: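 Gain-of-signal relative to DMSO is reported from fluorescent capillary electrophoresis of RT-PCR reporter products. These came from HepG2 cells expressing transfected RARg-GAL4 chimeras with UAS reporters, harvested 24 h after dosing.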

[3] = target: human RAR-related Orphan Receptor beta (RORb), RORB (gene 6096) (UniProt Q92753); assay: ATG_RORb_TRANS: Attagene TRANS-FACTORIAL HepG2 Assay for human RAR-related Orphan Receptor beta (RORb) (AID 2283010);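 as to AC50: potency for increased reporter mRNA meaning activation of RORb-Gal4 chimera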
Procedure, shortened: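 Multiplexed transcription-factor reporter assay: HepG2 cells transiently carrying NR-Gal4/GAL4-UAS constructs, 24 h treatment, mRNA quantified by RT-PCR plus capillary electrophoresis fluorescence; activity scored as induction over DMSO.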

[4] = target: human RAR-related Orphan Receptor gamma (RORg), RORC (gene 6097) (UniProt P51449); assay: ATG_RORg_TRANS: Attagene TRANS-FACTORIAL HepG2 Assay for human RAR-related Orphan Receptor gamma (RORg) (AID 2283011);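 as to AC50: potency for induction of reporter transcripts above DMSO so activators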
Procedure, shortened: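 Transient MRTU transfection of HepG2 (TRANS format, exogenous NR-Gal4 chimera). 24 h dosing. Total RNA → oligo(dT) RT → PCR → 6-FAM labelling → HpaI cut → CE. Gain vs DMSO.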

[5] = target: Retinoic acid receptor RXR-alpha (Homo sapiens) (UniProt P19793); assay: ATG_RXRa_TRANS: Attagene TRANS-FACTORIAL HepG2 Assay for human Retinoid X Receptor alpha (RXRa) (AID 2283012)
Procedure, shortened: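 Chimeric NR-GAL4 trans-activation in HepG2, 24 h treatment; reporter transcripts quantified by fluorescence on capillary electrophoresis, analysed for upward change from DMSO.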

[6] = target: human Retinoid X Receptor beta (RXRb), RXRB (gene 6257) (UniProt P28702); assay: ATG_RXRb_TRANS: Attagene TRANS-FACTORIAL HepG2 Assay for human Retinoid X Receptor beta (RXRb) (AID 2283013)
Procedure, shortened: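 After a 24 h incubation with test chemical, transfected HepG2 cells carrying NR-Gal4 fusions and GAL4-UAS reporter transcription units yield RNA whose reporter cDNA is FAM-labelled, HpaI-cut and sized by capillary electrophoresis; increases over DMSO are scored.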

[7] = target: human Thyroid Receptor alpha (THRa1), THRA (gene 7067) (UniProt P10827); assay: ATG_THRa1_TRANS: Attagene TRANS-FACTORIAL HepG2 Assay for human Thyroid Receptor alpha (THRa1) (AID 2283014)
Procedure, shortened: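 Transient HepG2 transfection, NR-Gal4 chimera driving GAL4-UAS reporters; 24 h compound exposure; total RNA, oligo(dT) RT, PCR, fluorescent primer extension, capillary electrophoresis. Upward direction vs DMSO control.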

[8] = target: human Vitamin D Receptor (VDR), VDR (gene 7421) (UniProt P11473); assay: ATG_VDR_TRANS: Attagene TRANS-FACTORIAL HepG2 Assay for human Vitamin D Receptor (VDR) (AID 2283022)
Procedure, shortened: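 RT-PCR/capillary electrophoresis read-out of reporter mRNA induction in transiently transfected HepG2; 24 h dosing; chimeric NR-Gal4 (TRANS format); gain-of-signal fit against DMSO baseline.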

Compound	AC50 [1]	AC50 [2]	AC50 [3]	AC50 [4]	AC50 [5]	AC50 [6]	AC50 [7]	outcome [8]	outcome [4]	AC50 [8]	outcome [6]	outcome [3]
CC(C)=CCCC(C)=CCCC(C)=CCO	active: 39.9 µM	inconclusive: 100 µM	inconclusive: 100 µM	inconclusive: 100 µM	active: 100 µM	active: 28.1 µM	inconclusive: 100 µM	inactive				
CC(=O)CC(=O)Nc1ccc(C)cc1C	inconclusive: 100 µM	inconclusive: 100 µM	inconclusive: 100 µM			inconclusive: 6.92 µM	inconclusive: 100 µM		inactive			
CC(=O)N(C)C	inconclusive: 2 µM	inconclusive: 100 µM	inconclusive: 100 µM	inconclusive: 100 µM		inconclusive: 187 µM	inconclusive: 100 µM					
N#Cc1cscn1	inconclusive: 100 µM	inconclusive: 100 µM	inconclusive: 100 µM	inconclusive: 100 µM		inconclusive: 100 µM	inconclusive: 100 µM					
COC(C)(C)CCO	inconclusive: 100 µM	inconclusive: 100 µM	inconclusive: 100 µM		inconclusive: 100 µM	inconclusive: 180 µM	inconclusive: 100 µM		inactive	inconclusive: 100 µM		
CCCCCCCCCCCCCCCCCC[N+](C)(C)C	active: 32.7 µM	active: 34.4 µM	inconclusive: 6.06 µM	inconclusive: 6.1 µM		inconclusive: 6.21 µM						
CCCCOC(=O)CCCCCCCC(=O)OCCCC	inconclusive: 100 µM	inconclusive: 100 µM	inconclusive: 0.00806 µM	inconclusive: 4.66 µM							inactive	
C=CCc1ccc(O)c(OC)c1	active: 40.5 µM	inconclusive: 0.528 µM		inconclusive: 0.00913 µM		active: 63.2 µM						inactive
COCCCOCCCOC	inconclusive: 100 µM	inconclusive: 100 µM	inconclusive: 100 µM		inconclusive: 100 µM		inconclusive: 100 µM		inactive	inconclusive: 100 µM		

Two of these compounds, set out differently:
Compound | AC50 [1] | AC50 [2] | AC50 [3] | AC50 [4] | AC50 [5] | AC50 [6] | AC50 [7] | outcome [8] | outcome [4] | AC50 [8] | outcome [6] | outcome [3]
CC(C)=CCCC(C)=CCCC(C)=CCO | active: 39.9 µM | inconclusive: 100 µM | inconclusive: 100 µM | inconclusive: 100 µM | active: 100 µM | active: 28.1 µM | inconclusive: 100 µM | inactive |  |  |  | 
COCCCOCCCOC | inconclusive: 100 µM | inconclusive: 100 µM | inconclusive: 100 µM |  | inconclusive: 100 µM |  | inconclusive: 100 µM |  | inactive | inconclusive: 100 µM |  | 
